Experimental findings from PMC10226041, “Discovery of Ruthenium(II) Metallocompound and Olaparib Synergy for Cancer Combination Therapy” (Journal of Medicinal Chemistry, 2023) are described below.

The data set relates to calf thymus DNA. As to the kind of experiment: DNA binding titrations (luminescence or UV–Vis) with calf thymus DNA. The note with it: luminescence titration, McGhee von Hippel fit.

Take `Cc1cc(C)c2nc3c4ccc[n+]5c4c4c(ccc[n+]4[Ru-4]546([n+]5ccccc5-c5cccc[n+]54)[n+]4ccccc4-c4cccc[n+]46)c3nc2c1` [Compound 5, [Ru(bpy)2(dmdppz)]^2+]: the “n, binding site size in base pairs” value was found to be 1.6 bp.

As for `Cc1cc(C)c2nc3c4ccc[n+]5c4c4c(ccc[n+]4[Ru-4]546([n+]5cc(C)ccc5-c5ccc(C)c[n+]54)[n+]4cc(C)ccc4-c4ccc(C)c[n+]46)c3nc2c1` [Compound 6, [Ru(5,5′dmb)2(dmdppz)]^2+], the “n, binding site size in base pairs” value was determined as 1.4 bp.

In the case of `Cc1cc[n+]2c(c1)-c1cc(C)cc[n+]1[Ru-4]213([n+]2ccc(C)cc2-c2cc(C)cc[n+]21)[n+]1cccc2c4nc5cc(C)cc(C)c5nc4c4ccc[n+]3c4c21` [Compound 7, [Ru(4,4′dmb)2(dmdppz)]^2+], the “n, binding site size in base pairs” value was found to be 0.7 bp.
